Here are results for 7 compounds from patent US11567075B2, “Immunochromatographic device, immunochromatographic kit and immunochromatographic detection method” (TANAKA KIKINZOKU KOGYO K.K., priority 2018, dated 2023).

The structures appear in SMILES notation.

In this data set the test system is inactivated Group A β-hemolytic streptococcus. The experiment in a line: Immunochromatographic detection, visual evaluation of red line on detection part. Also noted: key: “+” (positive) when the red line on the detection part (4) could be visually observed; “++” (strong positive) when the red line could be visually observed clearly; “±” (weak positive) when a light red line could be visually observed; “−” (negative) when the red line could not be visually observed. The settings on record: for Result of Visual Evaluation (After Storage at 50° C. for 24 Hours): device stored at 50° C. for 24 hours, then positive analyte sample 5×10^5 org/mL, after 5 minutes; for Result of Visual Evaluation (After 5 Minutes): positive analyte sample 5×10^5 org/mL, 150 μL.

Take `O=c1oc(=O)c2cc3c(=O)oc(=O)c3cc12` [Example 2, pyromellitic anhydride]: the “Result of Visual Evaluation (After Storage at 50° C. for 24 Hours)” value is “++” and the “Result of Visual Evaluation (After 5 Minutes)” value (from here on “Result … (After 5 Minutes)”) is given as “++”.

For the compound `O=C1CCC(=O)O1` [compound 2, succinic anhydride], the “Result of Visual Evaluation (After Storage at 50° C. for 24 Hours)” value was “−” and the “Result … (After 5 Minutes)” value is “++”.

Turning to `O=C(O)CC(O)C(=O)O` (centres unmarked) [compound 3, malic acid], the “Result of Visual Evaluation (After Storage at 50° C. for 24 Hours)” value was “−” and the “Result … (After 5 Minutes)” value is listed as “−”.

As for `C=C(CC(=O)O)C(=O)O` [compound 4, itaconic acid], the “Result of Visual Evaluation (After Storage at 50° C. for 24 Hours)” value is “−” and the “Result … (After 5 Minutes)” value is listed as “−”.

Regarding `CCCCCCCC/C=C\CCCCCCCC(=O)O` [compound 6, oleic acid], the “Result of Visual Evaluation (After Storage at 50° C. for 24 Hours)” value is listed as “−” and the “Result … (After 5 Minutes)” value was “−”.

With `N[C@@H](CCC(=O)O)C(=O)O` [compound 7, glutamic acid], the “Result of Visual Evaluation (After Storage at 50° C. for 24 Hours)” value is “−” and the “Result … (After 5 Minutes)” value is given as “−”.

For `O=C1CC(c2ccccc2)C(=O)O1` (centres unmarked) [compound 8, phenylsussinic acid anhydride], the “Result of Visual Evaluation (After Storage at 50° C. for 24 Hours)” value is given as “−” and the “Result … (After 5 Minutes)” value is reported as “+”.
